Results reported in US20110319338A1, “PEPTIDES THAT BIND EUKARYOTIC TRANSLATION INITIATION FACTOR 4E” (The Board of Regents of the University of Texas System, priority 2008, published 2011).
Results are given in words; binding and its absence hold for the method and conditions named. Binding seen in cells or lysates may run through a third protein. Some entries that bind do so weakly or less than the wild type.

The chains behind the UniProt entries cited, without tags or fusion partners. Residues count along the entry.
UniProt P06730, residues 2-217: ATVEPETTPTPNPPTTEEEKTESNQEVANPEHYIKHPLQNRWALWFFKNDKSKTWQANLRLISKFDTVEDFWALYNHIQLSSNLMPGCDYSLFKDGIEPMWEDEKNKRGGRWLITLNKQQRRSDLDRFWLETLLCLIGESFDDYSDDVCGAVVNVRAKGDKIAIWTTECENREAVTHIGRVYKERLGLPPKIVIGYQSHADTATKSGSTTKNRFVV

Key:
[1] = target: eukaryotic translation initiation factor 4E (UniProt P06730); assay: streptavidin-agarose pull-down from OVCAR-3 lysate, eIF4E Western blot
[2] = target: eukaryotic translation initiation factor 4E (UniProt P06730); assay: streptavidin-agarose pull-down of biotinylated peptide (3 micromoles per liter) from OVCAR-3 lysate, eIF4E Western blot

In the case of GTRIIYDRKFLLDRRNSPMA (peptide, UniProt Q13542 49-68, looked up, biotinylated (site not stated)) [4EBP2-WT peptide containing the corresponding region (residues 49-68) of 4EBP2], the binding [1] is reported as “binds” and the binding [2] is reported as “binds”.
